Experimental data as given in paper doi:10.1101/2024.12.20.629688.
These are yes or no findings as the source states them, for the method shown. Some entries that bind do so weakly or less than the wild type.

Chains of the proteins cited; added tags and fusions are not shown. Lines headed by an entry give the natural chain unless they say otherwise; changes in a name come on top. A line that says so, or that is headed by a name, gives the form on record, which may keep a tag or linker. Residues count along the entry.
UniProt P84077: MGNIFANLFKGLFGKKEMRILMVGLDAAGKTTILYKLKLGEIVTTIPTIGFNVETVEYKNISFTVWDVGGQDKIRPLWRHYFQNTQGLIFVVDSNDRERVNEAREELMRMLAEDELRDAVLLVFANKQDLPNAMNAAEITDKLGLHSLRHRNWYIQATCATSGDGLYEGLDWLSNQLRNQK
MTSL-tagged myrArf1 K38C (Cys159 mutated to Ala) (P84077, form named): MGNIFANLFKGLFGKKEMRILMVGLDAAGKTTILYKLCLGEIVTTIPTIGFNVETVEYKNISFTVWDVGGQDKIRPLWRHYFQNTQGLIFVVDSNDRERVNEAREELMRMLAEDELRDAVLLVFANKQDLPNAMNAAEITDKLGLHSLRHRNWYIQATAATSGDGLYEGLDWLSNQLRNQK
MTSL-tagged myrArf1 K73C (Cys159 mutated to Ala) (P84077, form named): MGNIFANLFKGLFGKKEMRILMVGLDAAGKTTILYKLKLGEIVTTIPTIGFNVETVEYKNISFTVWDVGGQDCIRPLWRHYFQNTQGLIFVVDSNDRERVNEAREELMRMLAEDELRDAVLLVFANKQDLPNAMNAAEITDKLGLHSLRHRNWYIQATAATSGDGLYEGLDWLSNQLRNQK
wt ASAP1 PH domain, [325–451]ASAP1 (Q9QWY8, residues 325-451): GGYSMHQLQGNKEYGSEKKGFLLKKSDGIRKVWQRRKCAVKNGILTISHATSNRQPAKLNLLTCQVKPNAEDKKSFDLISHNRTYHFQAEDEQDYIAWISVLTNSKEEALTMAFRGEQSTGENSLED
ΔN14 ASAP1 PH domain, [339–451]ASAP1 (Q9QWY8, residues 339-451): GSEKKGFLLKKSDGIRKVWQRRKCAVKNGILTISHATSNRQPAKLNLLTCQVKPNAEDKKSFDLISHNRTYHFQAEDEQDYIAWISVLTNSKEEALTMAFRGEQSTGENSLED

Key:
[1] = molecular target: myristoylated human Arf1, GTP-bound form, anchored on membrane (nanodiscs or LUVs) (human) (UniProt P84077); assay: NMR titration; 1H-13C methyl HMQC of ILV-methyl-labelled, otherwise perdeuterated myrArf1·GTPγS on nanodiscs (PC:PI(4,5)P2 95:5) without and with 2H or 1H PH domain at one ratio (Arf:PH 1:1.2); 25 °C; 20 mM Tris-HCl pH 7.4, 150 mM NaCl, 1 mM MgCl2, 0.5 mM TCEP; both purified
[2] = molecular target: myristoylated human Arf1, GTP-bound form, anchored on membrane (nanodiscs or LUVs) (human) (UniProt P84077); assay: 31P NMR; 1D 31P spectra of GTPγS bound to myrArf1 at the membrane, without and with wt PH; 25 °C; both purified
[3] = molecular target: myristoylated human Arf1, GTP-bound form, anchored on membrane (nanodiscs or LUVs) (human) (UniProt P84077); assay: NMR, 1H-15N TROSY-HSQC line broadening; labelled myrArf1 on nanodiscs containing PI(4,5)P2, alone or with a stoichiometric ratio of wt PH; both purified
[4] = molecular target: myristoylated human Arf1, GTP-bound form, anchored on membrane (nanodiscs or LUVs) (human) (UniProt P84077); assay: NMR titration; 1H-13C methyl HMQC and 1H-15N spectra of isotopically labelled wt PH on nanodiscs without and with nanodisc-associated myrArf1 at one ratio (PH:Arf1 1:1.2); both purified
[5] = molecular target: MTSL-tagged myrArf1 K38C (Cys159 mutated to Ala) (human) (UniProt P84077); assay: NMR paramagnetic relaxation enhancement; 60 μM MTSL-labelled protiated myrArf1 variant on nanodiscs, 50 μM methyl-labelled ASAP1 PH; paramagnetic against ascorbate-reduced sample; 25 °C; both purified
[6] = molecular target: MTSL-tagged myrArf1 K73C (Cys159 mutated to Ala) (human) (UniProt P84077); assay: as above
[7] = molecular target: myristoylated human Arf1, GTP-bound form, anchored on membrane (nanodiscs or LUVs) (human) (UniProt P84077); assay: other fluorescence titration + other: inhibition of the GAP activity of wt PZA; proxies for affinity: (1) rate of mant-GTP dissociation from myrArf1 (Trp to mant FRET) against PH concentration, LUVs with 5 mol% PI(4,5)P2, excess GTP; (2) IC50 of PH domain on GTP hydrolysis in 3 min with myrArf1·GTP below the Km and 1 nM wt PZA; both purified

Measured: binding

ΔN14 ASAP1 PH domain, [339–451]ASAP1 (from UniProt Q9QWY8 339-451) (domain or fragment)
binds: [1]

wt ASAP1 PH domain, [325–451]ASAP1 (from UniProt Q9QWY8 325-451) (domain or fragment)
binds: all assays above
